Article doi:10.1101/196097
Results are given in words; binding and its absence hold for the method and conditions named.

Protein sequences, listed by entry. Tags and fused reporters are not part of them. Residues count along the entry.
UniProt A0A3L7I2I8, residues 177-389: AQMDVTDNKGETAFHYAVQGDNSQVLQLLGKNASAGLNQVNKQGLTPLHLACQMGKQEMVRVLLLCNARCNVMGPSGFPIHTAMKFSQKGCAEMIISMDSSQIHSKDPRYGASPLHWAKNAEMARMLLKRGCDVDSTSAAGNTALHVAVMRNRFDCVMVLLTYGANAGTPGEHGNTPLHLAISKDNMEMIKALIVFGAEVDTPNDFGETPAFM

Target: MBP-tagged ANK domain (177-389) of iPLA2β (Chinese hamster (cloned from CHO cells))
Experiment: AUC

MBP-tagged ANK domain (177-389) of iPLA2β (from UniProt A0A3L7I2I8 177-389) (domain or fragment)
binding: no binding
